Measurements from PubChem BioAssay AID248 (DTP/NCI, 2004).
The list does not hold the whole screen: it is rich in T/C values a quarter to a half above the control, in often repeated tests (any T/C) and in doses without a T/C. Other doses and runs of a compound stand elsewhere. T/C gives the treated animals as a percentage of the vehicle group. Some doses have a count of surviving animals in place of a T/C: the source files T/C as zero there, which appears to mark a toxic dose or a test without result, not a measured value. Some survivor counts are full or nearly so, which does not show that the dose was tolerated: survival well below the control is almost never listed, so the zero probably covers shortened survival too. Survivors were counted at the toxicity check, usually on the fifth day, unless a day is given; later deaths do not show. Schedules are NCI's codes, taken here to give the interval after Q, in days (D) or hours (H), and the number of doses after X. Some schedule codes hold Z or #, which are not explained here. Some entries were tested several times; their values stand side by side, smallest first. Where survival is the endpoint, this PubChem deposit counts one and a half times the control or more as active, and values a quarter to a half above the control carry no call in these data; other NCI protocols may use other cut-offs. Signs of the kind (2×) say how often a value occurs here. Some T/C values carry the count of animals alive at the toxicity check (mostly the fifth day); where none is given, no animal had died by that day.

Test system: L1210 leukemia ip in BDF1 mice, survival T/C
Assay: NCI In Vivo Anticancer Drug Screen. Data for tumor model L1210 Leukemia (intraperitoneal) in B6D2F1 (BDF1) mice
Conditions: higher T/C = longer survival
[1] = T/C endpoint: mean survival time, dose: 100.0 mg/kg/injection, schedule: Q01DX001 (ip), vehicle: Klucel (hydroxypropylcellulose) (HPC)
[2] = T/C endpoint: mean survival time, dose: 200.0 mg/kg/injection, schedule: Q01DX001 (ip), vehicle: Klucel (hydroxypropylcellulose) (HPC)
[3] = T/C endpoint: mean survival time, dose: 400.0 mg/kg/injection, schedule: Q01DX001 (ip), vehicle: Klucel (hydroxypropylcellulose) (HPC)
[4] = T/C endpoint: mean survival time, dose: 2.0 mg/kg/injection, schedule: Q01DX009 (ip), vehicle: water
[5] = T/C endpoint: mean survival time, dose: 4.0 mg/kg/injection, schedule: Q01DX009 (ip), vehicle: water
[6] = T/C endpoint: mean survival time, dose: 400.0 mg/kg/injection, schedule: Q01DX001 (ip), vehicle: saline

SMILES: CC(C#N)CN1CC1 (stereo unspecified)
- survivor count (T/C endpoint: mean survival time, dose: 40.0 mg/kg/injection, schedule: Q01DX001 (ip), vehicle: Klucel (hydroxypropylcellulose) (HPC)): 3 of 6
- survivor count (T/C endpoint: mean survival time, dose: 80.0 mg/kg/injection, schedule: Q01DX001 (ip), vehicle: Klucel (hydroxypropylcellulose) (HPC)): 1 of 6
- survivor count [1]: 0 of 6
- survivor count [2]: 0 of 6
- survivor count [3]: 0 of 6

SMILES: COC(=O)C[C@](O)(CCC(C)(C)O)C(=O)O[C@@H]1C(OC)=C[C@]23CCCN2CCc2cc4c(cc2[C@H]13)OCO4
- T/C (T/C endpoint: mean survival time, dose: 0.2 mg/kg/injection, schedule: Q01DX009 (ip), vehicle: saline): 125 % of control
- T/C (T/C endpoint: mean survival time, dose: 0.5 mg/kg/injection, schedule: Q01DX009 (ip), vehicle: saline, evaluated on day 30): 116 and 121 % of control
- T/C (T/C endpoint: mean survival time, dose: 0.5 mg/kg/injection, schedule: Q01DX009 (ip), vehicle: saline, evaluated on day 60): 117 % of control
- T/C (T/C endpoint: mean survival time, dose: 0.5 mg/kg/injection, schedule: Q01DX009 (ip), vehicle: saline, run until all animals had died): 123 % of control
- T/C (T/C endpoint: mean survival time, dose: 0.5 mg/kg/injection, schedule: Q01DX009 (ip), vehicle: water): 119, 124, 125, 131 % of control
- T/C (T/C endpoint: mean survival time, dose: 1.0 mg/kg/injection, schedule: Q01DX009 (ip), vehicle: saline, evaluated on day 30): 120 and 124 % of control
- T/C (T/C endpoint: mean survival time, dose: 1.0 mg/kg/injection, schedule: Q01DX009 (ip), vehicle: saline, evaluated on day 60): 186 % of control
- T/C (T/C endpoint: mean survival time, dose: 1.0 mg/kg/injection, schedule: Q01DX009 (ip), vehicle: saline, run until all animals had died): 132 % of control
- T/C (T/C endpoint: mean survival time, dose: 1.0 mg/kg/injection, schedule: Q01DX009 (ip), vehicle: water): 117, 134, 135, 140 % of control
- survivor count (T/C endpoint: mean survival time, dose: 1.0 mg/kg/injection, schedule: Q03HX016 (ip), vehicle: saline): 4 of 10
- T/C (T/C endpoint: mean survival time, dose: 1.0 mg/kg/injection, schedule: Q03HX024 (ip), vehicle: saline): 130 % of control [8 of 10 alive]
- T/C (T/C endpoint: mean survival time, dose: 1.0 mg/kg/injection, schedule: Q#A X018 (ip), vehicle: saline): 142 % of control
- T/C (T/C endpoint: mean survival time, dose: 2.0 mg/kg/injection, schedule: Q01DX009 (ip), vehicle: saline, evaluated on day 30): 130 and 138 % of control
- T/C (T/C endpoint: mean survival time, dose: 2.0 mg/kg/injection, schedule: Q01DX009 (ip), vehicle: saline, evaluated on day 60): 136 % of control
- survivor count (T/C endpoint: mean survival time, dose: 2.0 mg/kg/injection, schedule: Q01DX009 (ip), vehicle: saline): 3 of 6
- T/C [4]: 109, 137, 148 % of control
- survivor count [4]: 5 of 10
- T/C (T/C endpoint: mean survival time, dose: 2.0 mg/kg/injection, schedule: Q01DX009 (sc), vehicle: saline): 126 % of control
- survivor count (T/C endpoint: mean survival time, dose: 2.0 mg/kg/injection, schedule: Q03HX008 (ip), vehicle: saline): 0 of 10
- survivor count (T/C endpoint: mean survival time, dose: 2.0 mg/kg/injection, schedule: Q03HX016 (ip), vehicle: saline): 0 of 10
- survivor count (T/C endpoint: mean survival time, dose: 2.0 mg/kg/injection, schedule: Q03HX024 (ip), vehicle: saline): 0 of 10
- survivor count (T/C endpoint: mean survival time, dose: 2.5 mg/kg/injection, schedule: Q01DX009 (ip), vehicle: saline): 4 of 6
- survivor count (T/C endpoint: mean survival time, dose: 4.0 mg/kg/injection, schedule: Q01DX009 (ip), vehicle: saline): 2 of 10
- T/C [5]: 132 % of control [9 of 10 alive]
- survivor count [5]: 0 of 10 and 1 of 6
- survivor count (T/C endpoint: mean survival time, dose: 5.0 mg/kg/injection, schedule: Q01DX009 (ip), vehicle: saline): 0 of 6
- survivor count (T/C endpoint: mean survival time, dose: 8.0 mg/kg/injection, schedule: Q01DX009 (ip), vehicle: water): 0 of 10
- survivor count (T/C endpoint: mean survival time, dose: 8.0 mg/kg/injection, schedule: Q01DX009 (oral), vehicle: saline): 0 of 10
- survivor count (T/C endpoint: mean survival time, dose: 8.0 mg/kg/injection, schedule: Q01DX009 (sc), vehicle: saline): 2 of 10
- survivor count (T/C endpoint: mean survival time, dose: 10.0 mg/kg/injection, schedule: Q01DX009 (ip), vehicle: saline): 0 of 6
- survivor count (T/C endpoint: mean survival time, dose: 16.0 mg/kg/injection, schedule: Q01DX001 (ip), vehicle: saline): 2 of 10
- survivor count (T/C endpoint: mean survival time, dose: 16.0 mg/kg/injection, schedule: Q04DX003 (ip), vehicle: saline): 2 of 10
- survivor count (T/C endpoint: mean survival time, dose: 20.0 mg/kg/injection, schedule: Q01DX009 (ip), vehicle: saline): 0 of 6
- T/C (T/C endpoint: median survival time, dose: 2.0 mg/kg/injection, schedule: Q01DX009 (ip), vehicle: saline, evaluated on day 5): 141 % of control
- T/C (T/C endpoint: median survival time, dose: 2.0 mg/kg/injection, schedule: Q01DX009 (ip), vehicle: saline, evaluated on day 30): 140 % of control

SMILES: NNc1ncnc2nc[nH]c12
- T/C (T/C endpoint: mean survival time, dose: 100.0 mg/kg/injection, schedule: Q01DX015 (ip), vehicle: saline): 130 % of control [5 of 6 alive]
- survivor count (T/C endpoint: mean survival time, dose: 200.0 mg/kg/injection, schedule: Q01DX015 (ip), vehicle: saline): 0 of 6
- survivor count (T/C endpoint: mean survival time, dose: 400.0 mg/kg/injection, schedule: Q01DX015 (ip), vehicle: saline): 0 of 6

SMILES: CCN=C(N)c1ccc(NC(=O)Nc2ccc(NC(=O)Nc3ccc(C(N)=NCC)cc3)cc2)cc1
- T/C (T/C endpoint: mean survival time, dose: 2.5 mg/kg/injection, schedule: Q01DX Z (ip), vehicle: water): 130 % of control
- T/C (T/C endpoint: mean survival time, dose: 5.0 mg/kg/injection, schedule: Q01DX Z (ip), vehicle: water): 148 % of control
- T/C (T/C endpoint: mean survival time, dose: 11.0 mg/kg/injection, schedule: Q01DX Z (ip), vehicle: water): 145 % of control
- survivor count (T/C endpoint: mean survival time, dose: 22.0 mg/kg/injection, schedule: Q01DX Z (ip), vehicle: water): 6 of 6
- survivor count (T/C endpoint: mean survival time, dose: 45.0 mg/kg/injection, schedule: Q01DX Z (ip), vehicle: water): 0 of 6
- survivor count (T/C endpoint: mean survival time, dose: 91.0 mg/kg/injection, schedule: Q01DX Z (ip), vehicle: water): 0 of 6
- survivor count (T/C endpoint: mean survival time, dose: 182.0 mg/kg/injection, schedule: Q01DX Z (ip), vehicle: water): 0 of 6
- survivor count (T/C endpoint: mean survival time, dose: 364.0 mg/kg/injection, schedule: Q01DX Z (ip), vehicle: water): 0 of 6

SMILES: N#C/C(C(N)=O)=C1\CCCc2sccc21
- survivor count [6]: 0 of 4

SMILES: NC(N)=N/N=C/c1cc([N+](=O)[O-])ccc1OCC(=O)O
- survivor count (T/C endpoint: mean survival time, dose: 720.0 mg/kg/injection, schedule: Q01DX Z (ip), vehicle: methylcellulose (MC)): 0 of 6
- survivor count (T/C endpoint: mean survival time, dose: 960.0 mg/kg/injection, schedule: Q01DX Z (ip), vehicle: methylcellulose (MC)): 0 of 6

SMILES: CCCCCCCCCCCCCCCCSCCOC(=O)C1C2CCC(O2)C1C(=O)O (stereo unspecified)
- survivor count [1]: 1 of 6
- survivor count [2]: 0 of 6
- survivor count [3]: 1 of 6

SMILES: NC(=O)CC1=NCCc2ccccc21
- survivor count [6]: 0 of 4

SMILES: CCC(C)C(CCN1CCCCC1)(CNC(=O)CN(CC)CC)c1cccc2ccccc12 (stereo unspecified)
- survivor count (T/C endpoint: mean survival time, dose: 50.0 mg/kg/injection, schedule: Q01DX009 (ip), vehicle: saline): 6 of 6
- survivor count (T/C endpoint: mean survival time, dose: 100.0 mg/kg/injection, schedule: Q01DX009 (ip), vehicle: saline): 6 of 6
- survivor count (T/C endpoint: mean survival time, dose: 200.0 mg/kg/injection, schedule: Q01DX009 (ip), vehicle: saline): 0 of 6
- survivor count (T/C endpoint: mean survival time, dose: 400.0 mg/kg/injection, schedule: Q04DX003 (ip), vehicle: saline): 0 of 6

SMILES: CCC[CH2][Sn]([Br])([CH2]CCC)[O]C(C)=O
- survivor count (T/C endpoint: mean survival time, dose: 100.0 mg/kg/injection, schedule: Q04DX002 (ip), vehicle: other): 0 of 3
- survivor count (T/C endpoint: mean survival time, dose: 200.0 mg/kg/injection, schedule: Q04DX002 (ip), vehicle: other): 0 of 3
- survivor count (T/C endpoint: mean survival time, dose: 400.0 mg/kg/injection, schedule: Q04DX002 (ip), vehicle: other): 0 of 3

SMILES: N#CC(c1ccc(N)cc1)c1ccc(F)cc1 (stereo unspecified)
- survivor count [6]: 1 of 4

SMILES: O=C1C(N2CCCCC2)=C(N2CC2)C(=O)C(N2CCCCC2)=C1N1CC1
- T/C (T/C endpoint: mean survival time, dose: 25.0 mg/kg/injection, schedule: Q04DX003 (ip), vehicle: saline): 102, 115, 119 % of control (2×)
- T/C (T/C endpoint: mean survival time, dose: 35.0 mg/kg/injection, schedule: Q04DX003 (ip), vehicle: saline): 126 % of control
- survivor count (T/C endpoint: mean survival time, dose: 55.0 mg/kg/injection, schedule: Q04DX003 (ip), vehicle: saline): 6 of 6
- survivor count (T/C endpoint: mean survival time, dose: 80.0 mg/kg/injection, schedule: Q04DX003 (ip), vehicle: saline): 1 of 6

SMILES: CS(=O)Cc1cccc2ccccc12 (stereo unspecified)
- survivor count [3]: 0 of 6
